Measurements: the supplement of paper PMC12595434, “Development of retinoid nuclear receptor pathway antagonists through targeting aldehyde dehydrogenase 1A3” (iScience, 2025)
The other results are listed elsewhere or left out. This is a noisy data set.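 Many melting curves are irregular; where none melted, Tm was taken as 64 °C.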

Chains of the proteins cited; added tags and fusions are not shown. Lines headed by an entry give the natural chain unless they say otherwise; changes in a name come on top.
UniProt Q92540: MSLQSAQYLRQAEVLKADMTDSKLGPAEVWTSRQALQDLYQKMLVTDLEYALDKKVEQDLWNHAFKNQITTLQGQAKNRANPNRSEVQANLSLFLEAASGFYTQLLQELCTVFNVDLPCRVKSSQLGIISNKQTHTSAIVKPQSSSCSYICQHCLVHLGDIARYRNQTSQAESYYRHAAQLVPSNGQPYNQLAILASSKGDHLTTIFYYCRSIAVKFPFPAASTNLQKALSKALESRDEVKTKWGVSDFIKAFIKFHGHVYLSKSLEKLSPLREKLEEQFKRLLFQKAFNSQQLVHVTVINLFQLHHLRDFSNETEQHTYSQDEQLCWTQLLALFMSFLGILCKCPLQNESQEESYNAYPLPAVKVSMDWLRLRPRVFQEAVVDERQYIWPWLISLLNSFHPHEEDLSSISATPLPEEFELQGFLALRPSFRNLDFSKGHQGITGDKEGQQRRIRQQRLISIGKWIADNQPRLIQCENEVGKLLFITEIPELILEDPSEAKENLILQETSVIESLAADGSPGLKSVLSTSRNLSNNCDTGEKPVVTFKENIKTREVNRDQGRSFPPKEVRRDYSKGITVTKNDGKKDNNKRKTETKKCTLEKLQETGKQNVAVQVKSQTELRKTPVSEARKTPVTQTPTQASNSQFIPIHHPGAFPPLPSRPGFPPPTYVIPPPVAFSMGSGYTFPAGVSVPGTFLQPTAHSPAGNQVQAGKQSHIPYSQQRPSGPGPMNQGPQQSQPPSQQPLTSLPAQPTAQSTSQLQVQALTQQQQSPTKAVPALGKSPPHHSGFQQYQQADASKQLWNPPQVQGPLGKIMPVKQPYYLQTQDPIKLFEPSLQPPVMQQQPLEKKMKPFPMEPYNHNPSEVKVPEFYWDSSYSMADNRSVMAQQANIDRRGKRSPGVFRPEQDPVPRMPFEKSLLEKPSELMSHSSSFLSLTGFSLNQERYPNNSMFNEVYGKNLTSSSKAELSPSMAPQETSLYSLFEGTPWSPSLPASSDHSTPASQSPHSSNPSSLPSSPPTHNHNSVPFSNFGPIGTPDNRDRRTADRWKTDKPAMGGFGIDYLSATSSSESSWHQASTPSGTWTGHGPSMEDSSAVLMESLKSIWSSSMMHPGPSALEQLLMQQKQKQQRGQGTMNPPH
UniProt Q92930: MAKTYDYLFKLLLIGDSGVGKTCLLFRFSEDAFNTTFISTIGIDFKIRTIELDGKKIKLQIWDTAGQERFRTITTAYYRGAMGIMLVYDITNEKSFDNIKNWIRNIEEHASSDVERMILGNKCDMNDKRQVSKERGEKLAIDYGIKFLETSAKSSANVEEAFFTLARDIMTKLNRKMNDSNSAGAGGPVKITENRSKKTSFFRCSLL
UniProt Q96D05: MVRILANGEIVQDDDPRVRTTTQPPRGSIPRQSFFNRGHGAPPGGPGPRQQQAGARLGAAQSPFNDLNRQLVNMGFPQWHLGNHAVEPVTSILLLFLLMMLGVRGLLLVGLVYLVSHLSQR
UniProt Q96EB1: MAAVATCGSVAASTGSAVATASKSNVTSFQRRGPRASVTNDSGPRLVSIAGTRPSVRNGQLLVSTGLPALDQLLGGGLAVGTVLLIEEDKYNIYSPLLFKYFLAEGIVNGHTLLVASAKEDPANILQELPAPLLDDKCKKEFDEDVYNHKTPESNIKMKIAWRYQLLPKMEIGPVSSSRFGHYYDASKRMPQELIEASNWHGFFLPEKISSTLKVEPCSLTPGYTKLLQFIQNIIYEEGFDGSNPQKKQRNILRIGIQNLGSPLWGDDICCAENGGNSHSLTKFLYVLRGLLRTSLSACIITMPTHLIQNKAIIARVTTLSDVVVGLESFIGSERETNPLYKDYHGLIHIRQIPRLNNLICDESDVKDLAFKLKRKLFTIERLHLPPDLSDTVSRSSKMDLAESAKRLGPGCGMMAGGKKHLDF
UniProt Q92556, whole entry: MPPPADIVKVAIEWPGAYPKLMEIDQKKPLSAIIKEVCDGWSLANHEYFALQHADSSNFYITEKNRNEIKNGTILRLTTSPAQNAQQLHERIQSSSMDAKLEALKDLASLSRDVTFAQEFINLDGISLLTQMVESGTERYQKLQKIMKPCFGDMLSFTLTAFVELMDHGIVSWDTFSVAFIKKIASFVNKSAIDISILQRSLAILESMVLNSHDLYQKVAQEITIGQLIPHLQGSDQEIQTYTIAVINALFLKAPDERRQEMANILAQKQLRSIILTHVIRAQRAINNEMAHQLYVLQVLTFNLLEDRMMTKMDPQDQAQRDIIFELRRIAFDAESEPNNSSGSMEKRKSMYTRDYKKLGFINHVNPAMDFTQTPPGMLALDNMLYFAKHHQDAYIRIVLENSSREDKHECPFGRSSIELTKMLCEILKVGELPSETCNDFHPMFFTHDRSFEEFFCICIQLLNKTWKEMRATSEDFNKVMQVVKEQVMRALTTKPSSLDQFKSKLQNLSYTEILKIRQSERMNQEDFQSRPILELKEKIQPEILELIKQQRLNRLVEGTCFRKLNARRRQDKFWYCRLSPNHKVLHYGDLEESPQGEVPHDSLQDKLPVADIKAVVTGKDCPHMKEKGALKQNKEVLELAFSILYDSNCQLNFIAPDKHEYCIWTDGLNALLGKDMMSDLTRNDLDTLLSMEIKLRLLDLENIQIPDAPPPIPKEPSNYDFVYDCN
UniProt Q8WZA0: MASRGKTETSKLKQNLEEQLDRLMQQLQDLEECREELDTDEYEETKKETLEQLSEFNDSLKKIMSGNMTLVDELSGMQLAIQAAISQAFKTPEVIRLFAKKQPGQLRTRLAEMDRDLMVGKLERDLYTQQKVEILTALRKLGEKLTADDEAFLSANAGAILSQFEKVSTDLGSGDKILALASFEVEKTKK
UniProt Q92622: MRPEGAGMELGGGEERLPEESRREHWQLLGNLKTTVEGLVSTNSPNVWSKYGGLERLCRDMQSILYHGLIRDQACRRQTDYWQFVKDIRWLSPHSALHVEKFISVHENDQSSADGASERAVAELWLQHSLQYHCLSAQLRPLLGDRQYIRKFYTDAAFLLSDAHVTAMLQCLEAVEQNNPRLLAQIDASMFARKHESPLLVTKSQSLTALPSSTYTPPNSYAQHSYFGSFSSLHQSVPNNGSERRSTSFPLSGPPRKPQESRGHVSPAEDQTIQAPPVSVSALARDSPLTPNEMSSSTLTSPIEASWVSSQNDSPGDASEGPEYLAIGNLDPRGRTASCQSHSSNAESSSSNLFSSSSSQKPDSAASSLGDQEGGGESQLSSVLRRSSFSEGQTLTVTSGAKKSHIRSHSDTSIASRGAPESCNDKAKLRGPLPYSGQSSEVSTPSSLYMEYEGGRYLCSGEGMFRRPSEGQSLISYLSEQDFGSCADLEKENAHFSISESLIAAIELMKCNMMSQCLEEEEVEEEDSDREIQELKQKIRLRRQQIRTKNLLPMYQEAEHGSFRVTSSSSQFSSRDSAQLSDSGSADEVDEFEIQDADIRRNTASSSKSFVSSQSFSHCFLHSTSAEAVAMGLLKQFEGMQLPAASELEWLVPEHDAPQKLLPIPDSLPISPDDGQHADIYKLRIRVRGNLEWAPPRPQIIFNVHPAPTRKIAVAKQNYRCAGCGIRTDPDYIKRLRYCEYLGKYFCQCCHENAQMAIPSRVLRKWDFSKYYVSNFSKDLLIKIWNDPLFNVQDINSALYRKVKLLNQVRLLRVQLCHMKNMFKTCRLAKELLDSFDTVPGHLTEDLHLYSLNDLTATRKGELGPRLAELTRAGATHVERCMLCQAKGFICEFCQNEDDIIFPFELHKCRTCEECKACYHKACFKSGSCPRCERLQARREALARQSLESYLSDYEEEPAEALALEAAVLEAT
UniProt Q96C90: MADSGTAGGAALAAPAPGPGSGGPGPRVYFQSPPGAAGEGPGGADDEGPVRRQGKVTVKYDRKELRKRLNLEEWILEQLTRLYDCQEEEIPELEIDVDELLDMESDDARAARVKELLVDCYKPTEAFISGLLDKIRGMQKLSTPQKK
UniProt Q92989: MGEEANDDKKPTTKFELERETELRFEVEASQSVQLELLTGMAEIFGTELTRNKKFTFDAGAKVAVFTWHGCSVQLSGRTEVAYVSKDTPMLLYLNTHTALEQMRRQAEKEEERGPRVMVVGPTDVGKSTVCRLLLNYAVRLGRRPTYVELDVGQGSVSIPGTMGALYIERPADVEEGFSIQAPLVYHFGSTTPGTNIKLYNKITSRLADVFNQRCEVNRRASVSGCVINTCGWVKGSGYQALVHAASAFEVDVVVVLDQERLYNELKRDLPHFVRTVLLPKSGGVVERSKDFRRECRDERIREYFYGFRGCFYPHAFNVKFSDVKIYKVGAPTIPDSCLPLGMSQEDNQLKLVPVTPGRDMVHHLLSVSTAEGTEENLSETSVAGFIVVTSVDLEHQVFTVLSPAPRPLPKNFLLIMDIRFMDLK
UniProt Q8WXF1: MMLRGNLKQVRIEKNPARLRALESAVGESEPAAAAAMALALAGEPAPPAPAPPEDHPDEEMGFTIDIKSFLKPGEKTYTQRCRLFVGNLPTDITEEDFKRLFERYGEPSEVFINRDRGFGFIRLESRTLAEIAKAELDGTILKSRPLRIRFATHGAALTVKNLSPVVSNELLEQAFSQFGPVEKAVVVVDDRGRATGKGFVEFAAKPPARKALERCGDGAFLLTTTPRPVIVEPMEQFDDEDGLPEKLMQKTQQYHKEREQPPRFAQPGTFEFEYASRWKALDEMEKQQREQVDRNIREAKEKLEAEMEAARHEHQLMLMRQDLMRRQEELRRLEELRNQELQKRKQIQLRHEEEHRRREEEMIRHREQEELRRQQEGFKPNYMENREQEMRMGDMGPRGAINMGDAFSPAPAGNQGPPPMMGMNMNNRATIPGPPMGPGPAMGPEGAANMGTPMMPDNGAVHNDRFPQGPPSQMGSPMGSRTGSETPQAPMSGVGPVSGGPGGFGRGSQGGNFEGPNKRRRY
UniProt Q8WWI1: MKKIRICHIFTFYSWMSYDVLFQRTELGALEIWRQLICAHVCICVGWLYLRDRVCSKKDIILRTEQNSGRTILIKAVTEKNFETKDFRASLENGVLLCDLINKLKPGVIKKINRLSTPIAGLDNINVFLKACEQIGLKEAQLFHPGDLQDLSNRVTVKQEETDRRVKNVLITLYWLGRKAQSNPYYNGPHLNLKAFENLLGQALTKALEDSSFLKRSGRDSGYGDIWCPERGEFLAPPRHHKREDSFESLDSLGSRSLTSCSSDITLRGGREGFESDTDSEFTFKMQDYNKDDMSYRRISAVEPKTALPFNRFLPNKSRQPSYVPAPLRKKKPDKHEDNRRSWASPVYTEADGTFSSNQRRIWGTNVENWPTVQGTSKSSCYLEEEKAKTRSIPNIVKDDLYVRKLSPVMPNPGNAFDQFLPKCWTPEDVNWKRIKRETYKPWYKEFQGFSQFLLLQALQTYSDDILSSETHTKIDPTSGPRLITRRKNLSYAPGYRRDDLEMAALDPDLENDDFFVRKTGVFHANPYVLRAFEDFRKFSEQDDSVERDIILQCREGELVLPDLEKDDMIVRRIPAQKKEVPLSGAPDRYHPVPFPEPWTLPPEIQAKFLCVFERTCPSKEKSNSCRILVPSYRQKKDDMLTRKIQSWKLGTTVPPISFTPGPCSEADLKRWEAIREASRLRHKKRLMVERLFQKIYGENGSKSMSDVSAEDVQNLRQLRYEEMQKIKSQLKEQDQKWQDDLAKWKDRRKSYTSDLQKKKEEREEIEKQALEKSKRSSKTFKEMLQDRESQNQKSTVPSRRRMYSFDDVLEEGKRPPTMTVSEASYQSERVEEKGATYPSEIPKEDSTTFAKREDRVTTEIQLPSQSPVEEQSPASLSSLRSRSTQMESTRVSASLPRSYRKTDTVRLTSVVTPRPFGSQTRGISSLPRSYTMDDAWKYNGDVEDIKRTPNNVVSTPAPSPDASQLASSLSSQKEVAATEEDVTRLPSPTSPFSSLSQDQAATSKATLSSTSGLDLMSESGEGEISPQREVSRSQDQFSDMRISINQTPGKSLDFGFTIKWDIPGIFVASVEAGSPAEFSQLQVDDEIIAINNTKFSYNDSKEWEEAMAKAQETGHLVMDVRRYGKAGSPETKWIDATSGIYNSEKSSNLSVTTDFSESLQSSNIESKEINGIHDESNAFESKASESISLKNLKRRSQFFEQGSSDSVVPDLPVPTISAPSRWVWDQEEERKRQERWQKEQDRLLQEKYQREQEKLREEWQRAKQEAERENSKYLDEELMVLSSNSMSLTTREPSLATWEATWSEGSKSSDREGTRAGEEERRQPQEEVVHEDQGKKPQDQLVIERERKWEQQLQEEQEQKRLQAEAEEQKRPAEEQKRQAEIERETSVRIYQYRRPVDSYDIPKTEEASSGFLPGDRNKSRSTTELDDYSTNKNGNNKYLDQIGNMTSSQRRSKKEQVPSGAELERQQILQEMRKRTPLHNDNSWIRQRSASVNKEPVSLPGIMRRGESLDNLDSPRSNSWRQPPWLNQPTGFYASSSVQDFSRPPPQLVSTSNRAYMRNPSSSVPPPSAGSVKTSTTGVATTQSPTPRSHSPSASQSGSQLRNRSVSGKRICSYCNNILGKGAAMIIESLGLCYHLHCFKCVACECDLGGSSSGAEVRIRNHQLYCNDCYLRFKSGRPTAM

Compound: CCc1cnccc1C(=O)Nc1cc2c(cc1F)NC(=O)CC2
Assay: melting temperature shift (DMSO Tm minus MBE1-treated Tm) in cellular thermal proteome profiling; higher = less thermal stabilization by MBE1 (negative = stabilized by MBE1)
Conditions: A375

| Target | melting temperature shift (MBE1 concentration: 100 nM) [°C] | melting temperature shift (MBE1 concentration: 1 uM) [°C] |
| --- | --- | --- |
| PHKB (UniProt Q93100) | 0.659 | 0.0244 |
| BBX (UniProt Q8WY36) | 0.288 | -0.814 |
| UniProt Q96AB6 | -0.11 | 0.232 |
| PHF3 (UniProt Q92576) | -1.51 | 0.0733 |
| LPGAT1 (UniProt Q92604) | 0.824 | 0.635 |
| CUL5 (UniProt Q93034) | -0.543 | 0.287 |
| LPIN2 (UniProt Q92539) | 1.8 | 0.934 |
| UBE2F (UniProt Q969M7) | -0.369 | -0.0872 |
| RTN4IP1 (UniProt Q8WWV3) | 1.4 | 0.147 |
| UniProt Q96CB8 | -0.308 | -0.705 |
| SH3KBP1 (UniProt Q96B97) | -2.18 | 0.469 |
| GPKOW (UniProt Q92917) | -0.63 | -0.456 |
| UniProt Q8WWN8 | -0.759 | -0.263 |
| GCN1 (UniProt Q92616) | -0.685 | -0.416 |
| TMEM131 (UniProt Q92545) | -0.562 | -0.928 |
| LPP (UniProt Q93052) | -1.85 | -0.127 |
| UniProt Q8WY21 | 0.324 | 1.39 |
| JADE3 (UniProt Q92613) | -1.79 | 0.299 |
| NSMAF (UniProt Q92636) | -0.415 | 0.281 |
| ZNF622 (UniProt Q969S3) | -1.17 | 0.758 |
| TNPO1 (UniProt Q92973) | 0.8 | 0.165 |
| SEH1L (UniProt Q96EE3) | -0.0201 | 0.619 |
| FAM120B (UniProt Q96EK7) | -0.775 | 0.409 |
| UniProt Q96BZ9 | 0.531 | 0.55 |

Quoted from the listing (two entries):

| Target | melting temperature shift (MBE1 concentration: 100 nM) [°C] | melting temperature shift (MBE1 concentration: 1 uM) [°C] |
| --- | --- | --- |
| UBE2F (UniProt Q969M7) | -0.369 | -0.0872 |
| RTN4IP1 (UniProt Q8WWV3) | 1.4 | 0.147 |

(next part)

| Target | melting temperature shift (MBE1 concentration: 100 nM) [°C] | melting temperature shift (MBE1 concentration: 1 uM) [°C] |
| --- | --- | --- |
| SMG7 (UniProt Q92540) | -0.325 | 0.169 |
| RAB8B (UniProt Q92930) | -1.72 | -3.91 |
| PMM1 (UniProt Q92871) | 0.898 | 0.647 |
| PRCC (UniProt Q92733) | -1.43 | -2.88 |
| PRKCDBP (UniProt Q969G5) | -1.96 | 0.208 |
| UniProt Q96D05 | -4.03 | -5.33 |
| ELP4 (UniProt Q96EB1) | -1.42 | 0.0855 |
| USP13 (UniProt Q92995) | 0.794 | 1.67 |
| EXT2 (UniProt Q93063) | 0.416 | 0.28 |
| HAUS1 (UniProt Q96CS2) | -0.692 | -0.922 |
| TSC1 (UniProt Q92574) | -0.179 | -1.39 |
| SEC14L1 (UniProt Q92503) | -4.79 | -2.98 |
| RPE (UniProt Q96AT9) | 3.79 | 0.235 |
| ISG20 (UniProt Q96AZ6) | 1.06 | 0.812 |
| MRPS31 (UniProt Q92665) | -0.971 | -0.421 |
| ITFG2 (UniProt Q969R8) | -1.02 | 0.359 |
| FAM136A (UniProt Q96C01) | -3.9 | -0.171 |
| UniProt Q969X0 | 0.183 | -0.626 |
| PALLD (UniProt Q8WX93) | -2.56 | 1.07 |
| LENG9 (UniProt Q96B70) | -1.03 | -0.102 |
| HDAC2 (UniProt Q92769) | -3.14 | -4.58 |
| EXOSC8 (UniProt Q96B26) | -0.256 | -0.293 |
| COA7 (UniProt Q96BR5) | -0.758 | 0.268 |
| C2ORF47 (UniProt Q8WWC4) | -1.32 | -0.848 |

| Target | melting temperature shift (MBE1 concentration: 100 nM) [°C] | melting temperature shift (MBE1 concentration: 1 uM) [°C] |
| --- | --- | --- |
| TTN (UniProt Q8WZ42) | -1.63 | 0.0494 |
| UniProt Q96DE5 | -1.06 | 0.305 |
| HSPH1 (UniProt Q92598) | 0.525 | -0.0733 |
| RFK (UniProt Q969G6) | -0.771 | 0.203 |
| UniProt Q96BT3 | -4.09 | -0.733 |
| UniProt Q92556 | 1.14 | 0.495 |
| LZIC (UniProt Q8WZA0) | -3.88 | -0.91 |
| PRPF31 (UniProt Q8WWY3) | -0.34 | -0.372 |
| UniProt Q92599 | -2.6 | 0.0378 |
| UniProt Q92622 | 6.28 | 1.04 |
| UniProt Q969T3 | -0.999 | -0.589 |
| TUBGCP3 (UniProt Q96CW5) | 0.891 | 0.507 |
| DOCK10 (UniProt Q96BY6) | 0.0672 | 1.6 |
| UniProt Q969J3 | -0.349 | 0.812 |
| PPP1R14B (UniProt Q96C90) | -1.14 | 0.219 |
| RAB24 (UniProt Q969Q5) | -1.07 | 0.496 |
| AIDA (UniProt Q96BJ3) | 1.33 | 0.275 |
| TRUB1 (UniProt Q8WWH5) | -0.287 | 0.574 |
| CREBBP (UniProt Q92793) | -0.565 | 0.36 |
| RSPRY1 (UniProt Q96DX4) | 0.423 | 1.46 |
| FAF2 (UniProt Q96CS3) | 0.513 | 0.183 |
| UPF1 (UniProt Q92900) | 0.745 | 0.177 |
| UniProt Q96AK3 | -1.63 | -0.0384 |
| KCTD12 (UniProt Q96CX2) | -0.427 | 0.558 |

Single records, from the list above. Order of values: melting temperature shift (MBE1 concentration: 100 nM) [°C] | melting temperature shift (MBE1 concentration: 1 uM) [°C]
KCTD12 (UniProt Q96CX2) reads -0.427 | 0.558
UniProt Q92599 reads -2.6 | 0.0378
UniProt Q96BT3 reads -4.09 | -0.733

Additional entries

| Target | melting temperature shift (MBE1 concentration: 100 nM) [°C] | melting temperature shift (MBE1 concentration: 1 uM) [°C] |
| --- | --- | --- |
| NUP205 (UniProt Q92621) | 1.09 | 0.891 |
| ARHGEF1 (UniProt Q92888) | -0.635 | -0.574 |
| HSD17B8 (UniProt Q92506) | 0.00671 | -4.77 |
| GRAMD1A (UniProt Q96CP6) | 0.492 | 0.195 |
| OVCA2 (UniProt Q8WZ82) | -0.894 | -0.89 |
| UniProt Q96A73 | -2.33 | 0.575 |
| ERGIC1 (UniProt Q969X5) | -1.23 | -0.482 |
| VTI1A (UniProt Q96AJ9) | -2.82 | 1.27 |
| DPF2 (UniProt Q92785) | -0.538 | -0.391 |
| AKAP1 (UniProt Q92667) | 0.58 | 0.0366 |
| UniProt Q8WYB5 | 0.49 | 3.58 |
| SIRT1 (UniProt Q96EB6) | 0.33 | -0.263 |
| OTULIN (UniProt Q96BN8) | 0.276 | -0.358 |
| CLP1 (UniProt Q92989) | 0.501 | 0.409 |
| C12ORF43 (UniProt Q96C57) | -3.49 | -1.17 |
| MED12 (UniProt Q93074) | -0.677 | -0.0941 |
| UniProt Q8WW33 | -4.07 | -3.48 |
| WASF1 (UniProt Q92558) | -3.36 | 0.635 |
| ANP32B (UniProt Q92688) | -0.174 | 0.00671 |
| DDB2 (UniProt Q92466) | -1.48 | -1.67 |
| UniProt Q93062 | -0.908 | -1.07 |
| USP9X (UniProt Q93008) | 0.794 | 0.0794 |
| UniProt Q8WWX9 | 0.127 | 0.452 |
| UniProt Q8WYH8 | 1.02 | -0.122 |

| Target | melting temperature shift (MBE1 concentration: 100 nM) [°C] | melting temperature shift (MBE1 concentration: 1 uM) [°C] |
| --- | --- | --- |
| ARL8A (UniProt Q96BM9) | -2.14 | 11.3 |
| UniProt Q8WY54 | -0.134 | 0.758 |
| PYCR2 (UniProt Q96C36) | 0.055 | 0.0916 |
| EMG1 (UniProt Q92979) | -2.01 | -1.29 |
| RQCD1 (UniProt Q92600) | -0.238 | 0.232 |
| DLG3 (UniProt Q92796) | 0.244 | 0.0183 |
| DDX1 (UniProt Q92499) | 0.263 | 0.0488 |
| GNPNAT1 (UniProt Q96EK6) | -0.922 | 1 |
| PSPC1 (UniProt Q8WXF1) | -1.03 | -0.79 |
| LMO7 (UniProt Q8WWI1) | -0.988 | -0.899 |
| UniProt Q96CG8 | -1.39 | -1.83 |
| UniProt Q96A29 | 0.218 | 0.112 |
| UniProt Q8WYP5 | 0.409 | 0.525 |
| MRPS27 (UniProt Q92552) | 0.833 | 0.116 |
| C18ORF8 (UniProt Q96DM3) | 0.256 | 0 |
| GOLGA1 (UniProt Q92805) | -1.11 | -0.856 |
| SPDL1 (UniProt Q96EA4) | -0.218 | -0.442 |
| OSTF1 (UniProt Q92882) | 0.629 | 0.128 |
| ISOC1 (UniProt Q96CN7) | -0.912 | 0.311 |
| LRRC59 (UniProt Q96AG4) | -2.83 | 0.769 |
| UniProt Q92610 | -1.25 | -0.0946 |
| RAD50 (UniProt Q92878) | -0.598 | -0.32 |
| UniProt Q969T7 | -0.729 | 1.13 |
| UniProt Q92823 | -2.33 | -1.97 |
